In patent publication US12195771B2, “Combination chemotherapy for the treatment of cancer” (WISCONSIN ALUMNI RESEARCH FOUNDATION, priority 2017, dated 2025):
For at least one compound, name, drawing or mass did not settle the structure.

Columns and labels:
[1] = tested on: H358 cells (KRAS G12C); test: Assay of cell viability with a single drug (MTS assay), H358; format: cell-based, human; settings: single agent, mean ± SEM, n = 3
Description: Cells in complete growth medium were plated at 5,000 cells per well in a 96-well microplate, which was incubated for 24 h. […] After 48 h, the medium was removed, and cells were incubated for 2 h with CellTiter 96® MTS reagent from Promega. Absorbance was recorded on an M1000 fluorimeter from Tecan (Morrisville, NC) at 490 nm. Data were analyzed with Prism 5.0 software from GraphPad (La Jolla, CA). Values of EC50, which is the concentration of a drug that gives half-maximal cell viability, were calculated with the equation: […]
where y is cell viability, x is the concentration of drug, and h is the Hill coefficient. Data were plotted on a log scale with each data point being the mean of 3 biological replicates.

[2] = tested on: human A549 lung cancer cells; test: Assay of cell viability with two drugs (kinase inhibitor + ptRNase), A549; format: cell-based; settings: for Synergism with ptRNase?: A549 cells, two-drug combination with ptRNase; for synergy with the ptRNase judged by combination index (CI): 5×5 concentration matrix, kinase inhibitor 1 h then ptRNase, 48 h
Description: We measured cell viability with a tetrazolium dye-based assay for metabolic activity.
We used the EC50 values obtained from single-drug treatment (Table 1) to design subsequent drug combination experiments. Two-drug combination experiments were performed using a 5×5 matrix to interrogate 25 concentration ratios per combination.
(§1) The EC50 values obtained from single-drug cell viability assays were used to design subsequent drug combination experiments. Two-drug combination experiments were performed by using a 5×5 matrix in 96-well plates to interrogate 25 dosing pairs. Cells in complete growth medium were plated at 5,000 cells per well in a 96-well microplate, which was incubated for 24 h at 37° C. […] After 48 h, cell viability was evaluated as described above.
(§2) The dose-effect curve for each drug was determined based on experimental observations and was compared to the effect afforded by the two-drug combination to derive a CI value. The CI values for all combinations were calculated using CalcuSyn 2.0 from Biosoft (Cambridge, UK). […] Each CI value was the mean of the results from 3 biological replicates.

[3] = tested on: phosphorylation of MEK, ERK, RSK and RI in SK-MEL-28 cells; test: Immunoblotting and pull-down of biotinylated RI after kinase inhibitor treatment; format: cell-based, human; settings: for phosphorylation of ERK and RSK: same inhibitor concentrations as FIG. 6; for phosphorylation of RI (α-pSer, α-pThr): biotinylated RI captured from SK-MEL-28 cells, 24 h inhibitor treatment
Description: FIGS. 6A-6B are immunoblots showing that inhibition of the ERK pathway prevents the phosphorylation of RI in SK-MEL-28 cells. Cells transfected to produce biotinylated RI were treated with bosutinib (5 μM), crizotinib (2 μM), PD 0332991 (2 μM), selumetinib (10 nM), dabrafenib (10 nM), or trametinib (1 nM) for 24 h. (A) Treatment with inhibitors of non-ERK pathway kinases has no effect on the phosphorylation of MEK, ERK, or RSK in cell lysates. Treatment with dabrafenib reduces the phosphorylation of MEK (α-pMEK ½ lane) as well as that of ERK and RSK (α-pERK ½, and α-pRSK lanes). Treatment with selumetinib and trametinib reduces the phosphorylation of ERK and RSK. (B) Treatment with inhibitors of non-ERK pathway kinases has no effect on phosphorylation of biotinylated RI, which was captured by using streptavidin-coated magnetic beads. Inhibition of ERK-pathway kinases diminishes phosphorylation of RI (α-pThr, and α-pSer lanes).
The inventors further confirmed the apparent effect of kinase inhibitors on RI phosphorylation by immunoblotting. Biotinylated RI was isolated by using streptavidin-coated magnetic beads from SK-MEL-28 cells after transient transfection for 48 h. To detect phosphorylated species, we used α-pSer or α-pThr. […] These biochemical data provide direct evidence that kinases in the ERK pathway are indeed responsible for phosphorylating RI, in agreement with the observed synergism.
Cells grown in a 10-cm dish were lysed with 1 mL of M-PER™ Mammalian Protein Extraction Reagent (a mammalian protein extraction reagent that contains a mild, nondenaturing detergent) containing PIERCE™ Protease Inhibitor Tablets (tablets containing protease inhibitors AEBSF, aprotinin, bestatin, E-64, leupeptin, and pepstatin A), PIERCE™ Phosphatase Inhibitor Tablets (sodium fluoride, sodium orthovanadate, sodium pyrophosphate, and beta-glycerophosphate for broad-spectrum inhibition of phosphatase activity), and DTT (1 mM). Cell lysates were subjected to centrifugation for 10 min at 14,000 g to remove cell debris, and the total protein concentration in the supernatant was determined with a Bradford protein assay. Protein (˜30 μg) was separated by SDS-PAGE using a gel from Biorad (Hercules, CA), and the resulting gel was subjected to transfer to a PVDF membrane with an IBLOT® 2 (a dry transfer device that performs western blotting transfer without the need for liquid buffers) dry transfer system. The membrane was blocked for 1 h in a solution of BSA (5% w/v) in TBS-Tween (TBS-T), washed, and then incubated overnight at 4° C. with an antibody (1:500 dilution) in TBS-T containing BSA (5% w/v). After another wash with TBS-T, membranes were incubated with secondary antibody (1:3000 dilution), washed again, and then detected with an Amersham ECL Select Western Blotting Detection Reagent and by an ImageQuant™ LAS4000 instrument from GE Healthcare (Marlborough, MA).
For pull-down assays, after isolation of the total protein, samples were incubated overnight at 4° C. with Streptavidin […]® (magnetic particles coated with streptavidin) Paramagnetic Particles from Promega. The beads were washed (3×) with PBS containing 1 mM DTT. Samples were eluted with 50 μL of SDS gel-loading dye and processed further for immunoblotting.

[4] = tested on: human melanoma cells (SK-MEL-28, A375, Malme-3M); test: Assay of cell viability with two drugs, melanoma cell lines; format: cell-based; settings: across three melanoma cell lines (FIG. 5)
Description: None of the agents were toxic to normal skin fibroblasts at the tested doses (FIG. 10).
as §1, §2

SMILES	EC50 (cell viability) [1]	Synergism with ptRNase? [2]	phosphorylation of MEK ([3]; SK-MEL-28, 24 h, bosutinib 5 μM, crizotinib 2 μM, PD 0332991 2 μM, selumetinib 10 nM, dabrafenib 10 nM, trametinib 1 nM)	phosphorylation of ERK and RSK ([3]; SK-MEL-28, 24 h)	phosphorylation of RI (α-pSer, α-pThr) [3]	synergy with the ptRNase judged by combination index (CI) ([2]; A549)	cell killing by kinase inhibitor combined with the ptRNase ([2]; A549, kinase inhibitor at EC50 for 1 h, then ptRNase 10 μM, viability after 48 h (FIG. 2))	synergy of combination with the ptRNase [4]
C=CC(=O)N1CC(N2CCN(C(=O)CNc3cc(C4(C)CC4)c(Cl)cc3O)CC2)C1 [ARS-853]	28 4 μM	–	–	–	–	–	–	–
COc1cc(Nc2c(C#N)cnc3cc(OCCCN4CCN(C)CC4)c(OC)cc23)c(Cl)cc1Cl [Bosutinib]	–	No	insignificant effects	insignificant effects	Strong bands for phosphorylated RI	–	–	–
Cn1cnc2c(F)c(Nc3ccc(Br)cc3Cl)c(C(=O)NOCCO)cc21 [Selumetinib]	–	Yes	–	diminished the phosphorylation	diminished the phosphorylation	strong synergy	–	–
CC(=O)Nc1cccc(-n2c(=O)n(C3CC3)c(=O)c3c(Nc4ccc(I)cc4F)n(C)c(=O)c(C)c32)c1 [Trametinib]	–	Yes	–	diminished the phosphorylation	diminished the phosphorylation	strong synergy	highly effective at killing lung cancer cells	somewhat weaker synergy
